These are yes or no findings as the source states them, for the method shown.
What was measured:
[1] = target: His6-PACRG (Parkin co-regulated gene) (human) (UniProt Q96M98); assay: SEC; Sephacryl S-200 gel filtration (1.6 cm x 50 cm), 50 mM Tris-HCl, 150 mM NaCl, 1 mM PMSF, 1 mM EDTA, pH 7.0; elution volume compared with BSA and cytochrome c; both purified
[2] = target: His6-GST-PACRG (human) (UniProt Q96M98); assay: as above

Sequences of proteins named here, by UniProt entry; tags and fusion partners are left off. A change or cut given only in a name is not applied to a line headed by its entry. A line that says so, or that is headed by a name, gives the form on record, which may keep a tag or linker.
His6-GST-PACRG (Q96M98-2, form named): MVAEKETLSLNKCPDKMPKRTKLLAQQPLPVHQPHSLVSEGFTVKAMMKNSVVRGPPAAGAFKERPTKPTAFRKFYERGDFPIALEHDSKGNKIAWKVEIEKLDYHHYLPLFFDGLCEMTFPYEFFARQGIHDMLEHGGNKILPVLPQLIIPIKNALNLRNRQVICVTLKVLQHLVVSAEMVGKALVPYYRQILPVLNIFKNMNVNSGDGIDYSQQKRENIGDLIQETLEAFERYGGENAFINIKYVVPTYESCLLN

| binding [1] | binding [2] | Substance |
| --- | --- | --- |
| no binding | – | His6-PACRG (Parkin co-regulated gene) (from UniProt Q96M98-2 1-257) |
| – | no binding | His6-GST-PACRG (from UniProt Q96M98-2 1-257) |

From article PMC8074078
